Data taken from patent publication US4616087A, “2,5-bis alkyl sulfonyl and 2,5-bis alkyl thio substituted-pyridines” (The Dow Chemical Company, priority 1982, dated 1986).
Some of these results come from one statement about several compounds together.

Test system: rhinovirus type 1A (RV-1A), rhinovirus type 2 (RV-2) or Coxsackie A21 virus (Cox A21)
Assay: Tissue Culture testing, antiviral activity (virus not specified)
Type: cell-based
Conditions: HeLa cells; qualitative
Method: Monolayered HeLa cells in 16 millimeter (mm) tissue culture dishes were treated with 1 ml of culture medium (Eagles medium supplemented with fetal calf serum) containing subject compound at an appropriate concentration or containing no compound at all. Culture media such as those described herein are more fully described in standard texts, as for example, Kuchler's Biochemical Methods in Cell Culture and Virology, Dowden, Hutchinson and Ross, Inc., Stroudsberg, PA (1977). Following treatment, cells were challenged with 0.05 ml of rhinovirus type 1A (RV-1A), rhinovirus type 2 (RV-2) or Coxsackie A21 virus (Cox A21) in culture medium. Some of the compounds were also tested against rhinovirus type 5 (RV-5), rhinovirus type 8 (RV-8) or rhinovirus type 64 (RV-64). Cell controls received no viruses.

SMILES | antiviral activity in the Tissue Culture testing
CS(=O)(=O)c1ccc(Oc2ccc(SC(F)(F)F)cc2)nc1 [Example 24, 5-(methylsulfonyl)-2-(4-((trifluoromethyl)thio)phenoxy)pyridine] | Antiviral activity was demonstrated
CCS(=O)(=O)c1ccc(Oc2ccc3c(c2)OCO3)nc1 [Example 25, 5-(ethylsulfonyl)-2-(3,4-methylenedioxyphenoxy)pyridine] | Antiviral activity was demonstrated
CC(C)S(=O)(=O)c1ccc(Oc2ccc(Cl)c(Cl)c2)nc1 [Example 26, 2-(3,4-dichlorophenoxy)-5-((1-methylethyl)sulfonyl)pyridine] | Antiviral activity was demonstrated
CCCCCCS(=O)(=O)c1ccc(Oc2ccc(Br)cc2)nc1 [Example 27, 2-(4-bromophenoxy)-5-(n-hexylsulfonyl)pyridine] | Antiviral activity was demonstrated
CC(=O)c1ccc(Oc2ccc(S(=O)(=O)C3CCCCC3)cn2)cc1 [Example 28, 1-(4-((5-(cyclohexylsulfonyl)-2-pyridinyl)oxy)phenyl)ethanone] | Antiviral activity was demonstrated
O=S(=O)(c1ccccc1)c1ccc(Oc2ccc(Cl)c(Cl)c2)nc1 [Example 29, 2-(3,4-dichlorophenoxy)-5-(phenylsulfonyl)pyridine] | Antiviral activity was demonstrated
O=C(c1ccccc1)c1ccc(Oc2ccc(S(=O)(=O)Cc3ccccc3)cn2)cc1 [Example 30, Phenyl(4-((5-((phenylmethyl)sulfonyl)-2-pyridinyl)oxy)phenyl)methanone] | Antiviral activity was demonstrated
CS(=O)(=O)c1cccnc1Oc1ccc(Cl)c(Cl)c1 [Example 31, 2-(3,4-dichlorophenoxy)-3-(methylsulfonyl)pyridine] | Antiviral activity was demonstrated
CCS(=O)(=O)c1cccnc1Oc1ccc(C(=O)c2ccccc2)cc1 [Example 32, (4-((3-(ethylsulfonyl)-2-pyridinyl)oxy)phenyl)phenylmethanone] | Antiviral activity was demonstrated
